Experimental data published in PMC10943099.
No constants are given. Whether binding was seen depends on the method and setting. Binding seen in cells or lysates may run through a third protein. Some entries that bind do so weakly or less than the wild type.

Protein sequences, listed by entry. Tags and fused reporters are not part of them.
UniProt O75175: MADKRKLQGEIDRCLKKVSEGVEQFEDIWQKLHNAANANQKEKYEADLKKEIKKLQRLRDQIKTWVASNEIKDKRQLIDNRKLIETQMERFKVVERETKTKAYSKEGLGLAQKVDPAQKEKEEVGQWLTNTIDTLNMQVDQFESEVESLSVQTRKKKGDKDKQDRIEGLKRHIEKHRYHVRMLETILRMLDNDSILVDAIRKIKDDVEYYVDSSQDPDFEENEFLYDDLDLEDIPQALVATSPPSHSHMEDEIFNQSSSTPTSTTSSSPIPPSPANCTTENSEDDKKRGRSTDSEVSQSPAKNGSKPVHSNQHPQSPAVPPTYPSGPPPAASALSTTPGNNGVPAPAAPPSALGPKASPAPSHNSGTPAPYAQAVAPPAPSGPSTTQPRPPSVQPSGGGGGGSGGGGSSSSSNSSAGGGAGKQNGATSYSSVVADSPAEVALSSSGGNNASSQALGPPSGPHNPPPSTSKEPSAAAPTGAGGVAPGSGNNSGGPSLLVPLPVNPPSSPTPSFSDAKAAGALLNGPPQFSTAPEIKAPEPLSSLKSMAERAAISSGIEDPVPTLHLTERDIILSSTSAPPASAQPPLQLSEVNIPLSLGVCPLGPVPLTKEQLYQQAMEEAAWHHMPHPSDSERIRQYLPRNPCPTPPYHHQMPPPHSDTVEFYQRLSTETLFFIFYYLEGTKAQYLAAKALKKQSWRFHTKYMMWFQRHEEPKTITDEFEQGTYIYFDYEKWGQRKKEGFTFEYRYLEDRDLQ
UniProt P29692: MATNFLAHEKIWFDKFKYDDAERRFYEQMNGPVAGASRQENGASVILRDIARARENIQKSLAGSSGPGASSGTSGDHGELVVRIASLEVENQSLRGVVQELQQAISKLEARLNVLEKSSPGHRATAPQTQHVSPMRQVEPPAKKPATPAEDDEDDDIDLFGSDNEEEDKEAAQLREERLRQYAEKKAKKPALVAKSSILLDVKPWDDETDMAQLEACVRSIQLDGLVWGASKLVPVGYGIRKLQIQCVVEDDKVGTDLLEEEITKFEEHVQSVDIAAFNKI

How the values were obtained:
[1] = target: full-length CNOT3 (exogenous, detected with Flag antibody) (human) (UniProt O75175); test: proximity ligation; PLA on MOLM13 lines overexpressing CNOT3-FL, NOT box truncated CNOT3 or empty vector, Flag antibody to detect exogenous CNOT3 and antibodies against EEF1E and EEF1D
[2] = target: CNOT3, subunit of the CCR4-NOT complex (endogenous) (human (endogenous in MOLM13)) (UniProt O75175); test: proximity ligation; Duolink in situ PLA on fixed MOLM13 cells with antibodies against endogenous CNOT3 and EEF1E or EEF1D; control (scramble) shRNA vs. CNOT3-depleted KD-33 and KD-37 cells

What does the source list for “EEF1D (endogenous) (from UniProt P29692 1-281)”?
binding [1]: binds; binding [2]: binds

B1: EEF1E, the auxiliary component of the multi-synthetase complex (endogenous) (protein, UniProt O43324 1-174)
chain: MAAAAELSLLEKSLGLSKGNKYSAQGERQIPVLQTNNGPSLTGLTTIAAHLVKQANKEYLLGSTAEEKAIVQQWLEYRVTQVDGHSSKNDIHTLLKDLNSYLEDKVYLTGYNFTLADILLYYGLHRFIVDLTVQEKEKYLNVSRWFCHIQHYPGIRQHLSSVVFIKNRLYTNSH
What does the source list for B1?
binding [1]: binds; binding [2]: binds
